Reference: PubChem BioAssay AID1224826 (NIAID, 2016)
Purpose: 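Genes that change LPS-induced Tnf promoter activity in mouse macrophages when knocked down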 (primary screen). Cells: RAW264.7 G9 macrophages from mouse bearing reporters for p65 (GFP) and the Tnf promoter (mCherry). Reagents: siRNA pool against mouse genes, 100 nM. Timing: 16 h of LPS stimulation, after 2 days of siRNA transfection. Conditions: bacterial lipopolysaccharide (Salmonella minnesota R595), 10 ng/ml. Measured: 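Nuclear mCherry signal of the Tnf promoter reporter measured by imaging after background removal, scaled to each plate median and turned into robust z-scores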. Direction: Tnf reporter robust z-score: higher = stronger Tnf promoter reporter signal after LPS. Rule for the call: 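Called active when robust z-score is at most -1.3, matching the median of the Tlr4 knock-down control, or over 3; control wells and wells with under 50 cells never active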. Calls: active = Tnf reporter clearly lowered or raised; inactive = no clear change in Tnf reporter.
This is an unselected part of about 17,000 deposited reagents. About 1,110 of them (6.6%) were called active. 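Active means lowered or raised reporter signal; replicate intensities are raw and not normalised per plate.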 Reagents against one gene are numbered here. Further read-outs or replicates are left out here. Reagent sequences are not shown.

For Pcnt (GeneID 18541), how do the results read?
Tnf reporter robust z-score: -0.01; fewer than 50 cells in well: enough cells in well; activity call: inactive

With Vmn1r226 (GeneID 171225), what was measured?
Tnf reporter robust z-score: 0.15; fewer than 50 cells in well: enough cells in well; activity call: inactive

For Gm10413 (GeneID 100041774), what was measured?
Tnf reporter robust z-score: -0.14; fewer than 50 cells in well: enough cells in well; activity call: inactive

For 4933404G15Rik (GeneID 74066), how do the results read?
fewer than 50 cells in well: fewer than 50 cells per well; well left out of calls; activity call: inactive

Which result is listed for Lyzl4 (GeneID 69032)?
Tnf reporter robust z-score: -1.04; fewer than 50 cells in well: enough cells in well; activity call: inactive

How did the screen score Kdelr1 (GeneID 68137)?
Tnf reporter robust z-score: 5.62; fewer than 50 cells in well: enough cells in well; activity call: active

With Pabpc2 (GeneID 18459), what was measured?
Tnf reporter robust z-score: 1.59; fewer than 50 cells in well: enough cells in well; activity call: inactive

For Rnf167 (GeneID 70510), how do the results read?
Tnf reporter robust z-score: 2.48; fewer than 50 cells in well: enough cells in well; activity call: inactive

With Zfhx4 (GeneID 80892), what does the deposit list?
Tnf reporter robust z-score: -1.15; fewer than 50 cells in well: enough cells in well; activity call: inactive

What did the screen give for Bpifb6 (GeneID 228796)?
Tnf reporter robust z-score: -0.38; fewer than 50 cells in well: enough cells in well; activity call: inactive

No new results follow: entries from further up.
Zfhx4 (GeneID 80892): Tnf reporter robust z-score = -1.15; fewer than 50 cells in well = enough cells in well; activity call = inactive
Bpifb6 (GeneID 228796): Tnf reporter robust z-score = -0.38; fewer than 50 cells in well = enough cells in well; activity call = inactive

The results go on.
For Trdmt1 (GeneID 13434), how do the results read?
Tnf reporter robust z-score: 0.52; fewer than 50 cells in well: enough cells in well; activity call: inactive

How did the screen score Pank4 (GeneID 269614)?
Tnf reporter robust z-score: 1.56; fewer than 50 cells in well: enough cells in well; activity call: inactive

How did the screen score Cd1d1 (GeneID 12479)?
Tnf reporter robust z-score: 0.55; fewer than 50 cells in well: enough cells in well; activity call: inactive

With Acat2 (GeneID 110460), how do the results read?
Tnf reporter robust z-score: 0.12; fewer than 50 cells in well: enough cells in well; activity call: inactive

With Mlxip (GeneID 208104), what was measured?
Tnf reporter robust z-score: -0.13; fewer than 50 cells in well: enough cells in well; activity call: inactive

Which result is listed for Erbb2 (GeneID 13866)?
Tnf reporter robust z-score: -0.56; fewer than 50 cells in well: enough cells in well; activity call: inactive

For Bscl2 (GeneID 14705), what was measured?
Tnf reporter robust z-score: 0.12; fewer than 50 cells in well: enough cells in well; activity call: inactive

With Adipoq (GeneID 11450), how do the results read?
Tnf reporter robust z-score: 2.9; fewer than 50 cells in well: enough cells in well; activity call: inactive

With Asb8 (GeneID 78541), how do the results read?
Tnf reporter robust z-score: -0.59; fewer than 50 cells in well: enough cells in well; activity call: inactive

With Pate4 (GeneID 56872), what was measured?
fewer than 50 cells in well: fewer than 50 cells per well; well left out of calls; activity call: inactive

For Gm14461 (GeneID 329436), what does the deposit list?
Tnf reporter robust z-score: 0.01; fewer than 50 cells in well: enough cells in well; activity call: inactive

With Wnt11 (GeneID 22411), what does the deposit list?
Tnf reporter robust z-score: 0.1; fewer than 50 cells in well: enough cells in well; activity call: inactive

Which result is listed for Rnaseh2c (GeneID 68209)?
Tnf reporter robust z-score: -0.31; fewer than 50 cells in well: enough cells in well; activity call: inactive

What is on record for Ppm1f (GeneID 68606)?
Tnf reporter robust z-score: -0.83; fewer than 50 cells in well: enough cells in well; activity call: inactive

How did the screen score Slc6a15 (GeneID 103098) #1?
Tnf reporter robust z-score: 0.09; fewer than 50 cells in well: enough cells in well; activity call: inactive

With Slc6a15 (GeneID 103098) #2, how do the results read?
fewer than 50 cells in well: fewer than 50 cells per well; well left out of calls; activity call: inactive

With Zp3 (GeneID 22788), how do the results read?
Tnf reporter robust z-score: -0.63; fewer than 50 cells in well: enough cells in well; activity call: inactive
